Experimental data taken from PubChem BioAssay AID328 (DTP/NCI, 2004).
The list is a part of this screen's results and no random one: it gathers tests that were run many times, whatever their T/C, doses with no T/C, and many T/C values between a quarter and a half above the control. Further doses and runs are listed elsewhere. T/C is the treated group as % of the vehicle group. Some doses have a count of surviving animals in place of a T/C: the source holds a T/C of zero for them, seemingly a mark for toxic or unscored doses. Some doses without a T/C left all or most animals alive at the check, yet need not have been tolerated: survival well below the control is almost never listed, so the zero probably covers shortened survival too. Counts of survivors are from the toxicity check (mostly the fifth day) where no day follows; animals may have died later. Schedule codes are those of the source, taken here to give the interval after Q, in days (D) or hours (H), and the number of doses after X. Where survival is the endpoint, the PubChem record calls one and a half times the control and up active, and a quarter to a half above the control has no call in these data; cut-offs in other NCI protocols can differ. Some T/C values carry the count of animals alive at the toxicity check (mostly the fifth day); where none is given, no animal had died by that day. Some entries were tested several times; the results are listed from low to high.

System: BDF1 mice, P388 leukemia ip, median survival T/C
Test: NCI In Vivo Anticancer Drug Screen. Data for tumor model P388 Leukemia (intraperitoneal) in B6D2F1 (BDF1) mice
Settings: T/C endpoint: median survival time, higher T/C = longer survival
How it was run: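 Reported as T/C, where T is the survival measurement in dosed animals and C the same measurement in vehicle controls.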

[1] = dose: 100.0 mg/kg/injection, schedule: Q01DX009 (ip), vehicle: saline with Tween-80
[2] = dose: 200.0 mg/kg/injection, schedule: Q01DX009 (ip), vehicle: saline with Tween-80
[3] = dose: 400.0 mg/kg/injection, schedule: Q01DX009 (ip), vehicle: saline with Tween-80
[4] = dose: 25.0 mg/kg/injection, schedule: Q01DX009 (ip), vehicle: saline with Tween-80
[5] = dose: 200.0 mg/kg/injection, schedule: Q01DX009 (ip), vehicle: gum acacia
[6] = dose: 1.71 mg/kg/injection, schedule: Q04DX003 (ip), vehicle: saline
[7] = dose: 18.0 mg/kg/injection, schedule: Q01DX009 (ip), vehicle: saline

## CC(=Nc1ccccc1)C1=C(O)C(Cc2ccccc2)NC1=O (stereo not drawn)
[1]
  T/C: 137 % of control
[2]
  survivor count: 5 of 6
[3]
  survivor count: 0 of 6

## O=NN(CCBr)C(=O)NC1CCCCC1
dose: 12.5 mg/kg/injection, schedule: Q01DX009 (ip), vehicle: saline with Tween-80
  T/C: 140 % of control
[4]
  T/C: 145 % of control
dose: 50.0 mg/kg/injection, schedule: Q01DX009 (ip), vehicle: saline with Tween-80
  T/C: 125 and 127 % of control
[1]
  T/C: 130 and 133 % of control [5 of 6 alive]
[5]
  T/C: 130 % of control
  survivor count: 5 of 6
[3]
  survivor count: 3 of 6
dose: 400.0 mg/kg/injection, schedule: Q04DX003 (ip), vehicle: saline with Tween-80
  survivor count: 5 of 6

## CCCCCCCCCCCCSC(=N)N
dose: 1.56 mg/kg/injection, schedule: Q04DX003 (ip), vehicle: saline
  survivor count: 0 of 6
dose: 6.25 mg/kg/injection, schedule: Q04DX003 (ip), vehicle: saline
  survivor count: 6 of 6
dose: 12.5 mg/kg/injection, schedule: Q04DX003 (ip), vehicle: saline
  survivor count: 6 of 6

## NC(=S)N/N=C\c1nnc(N)s1
[4]
  survivor count: 6 of 7
[1]
  survivor count: 7 of 7

## COc1cccc2c1C(=O)c1c(O)c3c(c(O)c1C2=O)C[C@@](O)(/C(C)=N/NC(=O)c1ccc(Cl)cc1)C[C@@H]3OC1CC(N)C(O)C(C)O1 (stereo partly drawn)
dose: 0.5 mg/kg/injection, schedule: Q01DX009 (ip), vehicle: water
  T/C: 142 % of control [5 of 6 alive]
dose: 2.0 mg/kg/injection, schedule: Q01DX009 (ip), vehicle: water
  T/C: 140 % of control

## CSc1ncc2cnccn12
dose: 100.0 mg/kg/injection, schedule: Q01DX009 (ip), vehicle: water
  survivor count: 1 of 6
dose: 200.0 mg/kg/injection, schedule: Q04DX003 (ip), vehicle: water
  survivor count: 0 of 6

## [CH3][Sn]([CH3])([CH3])[S]C(=S)N1CCOCC1
dose: 1.5 mg/kg/injection, schedule: Q01DX009 (ip), vehicle: Klucel (hydroxypropylcellulose) (HPC)
  survivor count: 6 of 6
dose: 3.0 mg/kg/injection, schedule: Q01DX009 (ip), vehicle: Klucel (hydroxypropylcellulose) (HPC)
  survivor count: 1 of 6

## O=N[O-].[Co].[N-]=C=S.[NH2-].[NH2-].[NH2-].[NH2-]
dose: 50.0 mg/kg/injection, schedule: Q01DX009 (ip), vehicle: saline
  T/C: 127 % of control [5 of 6 alive]
dose: 100.0 mg/kg/injection, schedule: Q04DX003 (ip), vehicle: saline with Tween-80
  survivor count: 3 of 6
dose: 200.0 mg/kg/injection, schedule: Q04DX003 (ip), vehicle: saline with Tween-80
  survivor count: 1 of 6

## C[n+]1ccc(C#N)c2ccccc21
[6]
  T/C: 125 % of control
  survivor count: 6 of 6
[7]
  T/C: 127 % of control
  survivor count: 1 of 6
dose: 27.0 mg/kg/injection, schedule: Q01DX009 (ip), vehicle: saline
  survivor count: 0 of 6
dose: 28.0 mg/kg/injection, schedule: Q01DX009 (ip), vehicle: saline
  survivor count: 1 of 6
dose: 30.0 mg/kg/injection, schedule: Q04DX003 (ip), vehicle: saline with Tween-80
  survivor count: 1 of 6
dose: 40.0 mg/kg/injection, schedule: Q01DX009 (ip), vehicle: saline
  survivor count: 0 of 6

## COc1cc(C=Nc2ccc(Cl)cc2)ccc1N(CCCl)CCCl
dose: 50.0 mg/kg/injection, schedule: Q04DX003 (ip), vehicle: saline
  T/C: 145 % of control
dose: 75.0 mg/kg/injection, schedule: Q04DX003 (ip), vehicle: other
  survivor count: 6 of 6
[1]
  survivor count: 3 of 6
[2]
  survivor count: 0 of 6
[3]
  survivor count: 0 of 6
